Assay results: patent publication US20080166698A1 (Genentech, published 2008)
These are yes or no findings as the source states them, for the method shown. Some entries that bind do so weakly or less than the wild type.

B1: LU13 scFv (scFv, V domains shown, not shown: small tags and cut ends)
VH: QVQLQESGGNLVQPGGSLRLSCAASGFTFSSYAMSWVRQAPGKGLEWVSAISGSGGNTYYADSVKGRFTISRDNSKNTLYLQMNTLRAEDTAVYYCARRASYDYWGQGTMVTVSS
VL: QSVLTQPASVSGSPGQSITVSCTGTSSDVGGYNYVSWYQQHPGKAPKLMIYEGSKRPSGVSNRFSGSKSGNTASLTISGLQAEDEADYYCSSYTTRSTRVFGGGTKLTVL
B2: LU20 scFv (scFv, V domains shown, not shown: small tags and cut ends)
VH: EVQLVETGGGLVQPGRSLRLSCAASGFTFEDYGMHWVRQAPGKGLEWVSGINWNGGSTGYADSVKGRFTISRDNAKNSLYLQMNSLRAEDTALYYCARDAPSGSYGYWFDPWGQGTLVTVSS
VL: DIQMTQSPSTLSASIGDRVTITCRASEGIYHWLAWYQQKPGKAPKLLIYKASSLASGAPSRFSGSGSGTDFTLTISSLQPDDFATYYCQQYSNYPLTFGGGTKLEIK
B3: LU30 scFv (scFv, V domains shown)
VH: QVKLQESGGGLVQPGGSLKLSCAASGFTFSGYGMSWIRQTPDKRLEWVATINSGGSYTYYSDSVKGRFTISRDNVKNTLYLQMSSLKSEDTAMYYCARRNGTLYYYLMDYWGRGTLVTVSS
VL: QSVLTQPPSASGSPGQSVTISCTGTSSDVGGYNYVSWYQQHPGKAPKFMIYDVSKRPSGVSNRFSGSKSGNTASLTISGVQAEDEADYYCSSYTSASTVIFGGGTKLTVL
notes: Human scFv from a naive phage library, secreted from E. coli and purified through its His tag; also called clone LU30; LU30 scFv fragment; not shown: scFv linker between the domains, domain order, and the His tag

Columns and labels:
[1] = target: DAF (immunoaffinity purified with LU20 or LU13, detected by western blot) (UniProt P08174); assay: immunoaffinity purification followed by western blotting with anti-DAF antibody IA10
[2] = target: decay accelerating factor (DAF, CD55) on cells (UniProt P08174); assay: flow cytometry with scFv fragment 3 µg/ml on live cells (1264, A549, CALU6, SKLU1, BEAS-2B, NHEK), detected with anti-hexahistidine antibody and FITC anti-mouse F(ab')2; the filing names DAF as the antigen of LU13 by immunoaffinity purification and western blot
[3] = target: decay accelerating factor (DAF, CD55) on cells (UniProt P08174); assay: flow cytometry with scFv fragment 3 µg/ml on live cells (1264, A549, CALU6, SKLU1, BEAS-2B, NHEK), detected with anti-hexahistidine antibody and FITC anti-mouse F(ab')2; the filing names DAF as the antigen of LU20 by immunoaffinity purification and western blot
recombinant human DAF [4] = target: T1, recombinant human DAF (human, UniProt P08174 35-353, limits assumed); assay: flow cytometry on 1264 cells, soluble recombinant human DAF as competitor
T1 construct: also called decay accelerating factor; CD55
T1 sequence (looked up): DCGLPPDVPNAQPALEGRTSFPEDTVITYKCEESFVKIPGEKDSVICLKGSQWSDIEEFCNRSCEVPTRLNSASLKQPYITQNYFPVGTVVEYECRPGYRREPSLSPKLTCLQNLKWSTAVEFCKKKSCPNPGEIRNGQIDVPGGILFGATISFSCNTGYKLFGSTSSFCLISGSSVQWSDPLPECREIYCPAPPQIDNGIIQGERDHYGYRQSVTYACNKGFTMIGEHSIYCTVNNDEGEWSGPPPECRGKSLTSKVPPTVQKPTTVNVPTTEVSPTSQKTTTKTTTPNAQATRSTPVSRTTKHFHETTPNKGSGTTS

recombinant human DAF [5] = target: T1, recombinant human DAF; assay: competition in flow cytometry: LU30 scFv 3 µg/ml on 1264 cells, competitor recombinant human DAF 30 µg/ml (single concentration)

Row | Binder | binding [1] | binding [2] | binding [3] | binding (recombinant human DAF [4]) | binding (recombinant human DAF [5])
1 | B1 | binds | binds |  |  | 
2 | B2 | binds |  | binds |  | 
3 | B3 |  |  |  | binds | binds
